Source: patent US6350839B2, “Hydrolysis-stable and polymerizable acrylophosphonic acid monoesters” (Ivoclar Vivadent AG, priority 2000, dated 2002)

Experiment: Etching capacity on tooth enamel (scanning electron microscope)
Conditions: 40% aqueous solution on bovine tooth enamel

| SMILES | exposure time to produce clearly visible etching pattern [s] |
| --- | --- |
| C=C(COCCP(=O)(O)O)C(=O)O [Comparison monomer, 2-[4-dihydroxyphosphoryl-2-oxa-butyl]-acrylic acid, reference compound] | 30 |
| C=C(COCCP(=O)(O)OC)C(=O)O [Monomer 1, 2-[4-hydroxymethoxyphosphoryl-2-oxa-butyl]-acrylic acid] | 10 |
